Test results taken from article PMC7819943, “Rice protein-binding microarrays: a tool to detect cis-acting elements near promoter regions in rice”.
Some of the results follow.

Sequences of proteins named here, by UniProt entry; tags and fusion partners are left off.
UniProt Q0JBA9, entry or part of it: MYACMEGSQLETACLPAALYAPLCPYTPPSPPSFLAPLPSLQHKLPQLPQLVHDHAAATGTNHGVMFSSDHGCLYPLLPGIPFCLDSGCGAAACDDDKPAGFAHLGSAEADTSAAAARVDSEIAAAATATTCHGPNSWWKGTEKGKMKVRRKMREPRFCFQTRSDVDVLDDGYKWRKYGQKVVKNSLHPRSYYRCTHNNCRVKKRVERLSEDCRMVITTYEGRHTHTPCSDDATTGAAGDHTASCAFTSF

target: OsWRKY34 (Oryza sativa, UniProt Q0JBA9 1-250); assay: protein-binding microarray (RPBM); PBS, 2% BSA, 51.3 ng/ul salmon testes DNA, 50 uM zinc acetate, 200 nM TF, 25 C, 1 h; high values mean tight binding; conditions: protein: recombinant; tags: N-terminal polyhistidine and DsRed monomer fusion (pET32a); label: CyDye5-dUTP incorporated in the synthesized complementary strand; 3' TTTTT single-stranded linker to array surface; dsDNA, one strand shown
Summary of the method: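 For the binding signal, per-feature fluorescence intensity was read in arbitrary units on an Axon 4000B scanner. Before scanning, a 2% BSA-blocked custom Agilent array made double-stranded with Cy5-dUTP was washed after 1 h at 25 °C with 200 nM protein and 50 µM zinc acetate. The proteins were Ni–NTA-purified transcription factors with N-terminal polyhistidine and DsRed fusions, expressed in E. coli BL21-CodonPlus.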

Sequence	binding signal
GTTACACTGGCCAGTACCTCTCCTGTCTCATATTACTTTACGGAGTCACCTAGTGCAG	9250 fluorescence intensity (a.u.)
TATGTTGTGCTTTGTATTTTTTTCCTGTTGTATTCACAATCGGAGTCACCTAGTGCAG	12500 fluorescence intensity (a.u.)
ATTATATGTTCTTTGTATTTAATTAACCATATATATGCAGCGGAGTCACCTAGTGCAG	8020 fluorescence intensity (a.u.)
ACACCTCTTCTGCTCATCTTCTTCTCATTCAACCACGCTTCGGAGTCACCTAGTGCAG	8120 fluorescence intensity (a.u.)
CTTGCTGCCTGGATTTCTCCCTGTTTGCTCCCTGACGGAGCGGAGTCACCTAGTGCAG	9470 fluorescence intensity (a.u.)
ACATTAGTTACGTTTTCTGGTTTATATACCTTTAATAATACGGAGTCACCTAGTGCAG	8040 fluorescence intensity (a.u.)
ATGGTGGCAGTAATTGGATATGAGTGTTTGGACATGTGTTCGGAGTCACCTAGTGCAG	11100 fluorescence intensity (a.u.)
GTACTCGTTGTCTGTCCGATCATCCTTTTTTTTTTCTTGTCGGAGTCACCTAGTGCAG	9800 fluorescence intensity (a.u.)
TCGCAACGCTACAGTAATCTCGTGTGCCCTATCTCGTTCGCGGAGTCACCTAGTGCAG	11800 fluorescence intensity (a.u.)
GAACTGCACCACTCAACATCTCCTACTACTAGTCAATCGTCGGAGTCACCTAGTGCAG	8800 fluorescence intensity (a.u.)
TGTGGTTTCTTTTGGTGCCCTTGTTTTGGGAGTTTATCAGCGGAGTCACCTAGTGCAG	9890 fluorescence intensity (a.u.)
CATAATCGTTGACCTGGCTAGACTCATAGGGCAATTTAGTCGGAGTCACCTAGTGCAG	9900 fluorescence intensity (a.u.)
CTACCCCAATTGGCCGACCACTCTCCCTCTCCATTTATTTCGGAGTCACCTAGTGCAG	8040 fluorescence intensity (a.u.)
ATTTCTCCAGTCACGTTACTGCTTACTACTGCTTACTACTCGGAGTCACCTAGTGCAG	8440 fluorescence intensity (a.u.)
CCCTGTCCCCGTCTCCTCCGTTGTTGCATGGGTCCCGCCTCGGAGTCACCTAGTGCAG	8210 fluorescence intensity (a.u.)
AAGACCATTTGCTCCATGATTTGACAATGTGATGCTATAACGGAGTCACCTAGTGCAG	8100 fluorescence intensity (a.u.)
AACTAGAAGGTATATACCAGGCTGTGTTTGTTTTGGGTGGCGGAGTCACCTAGTGCAG	8150 fluorescence intensity (a.u.)
TCTCCTAATATCTTCTCTTTTTTTTTCCCATTCCCAGTTTCGGAGTCACCTAGTGCAG	9080 fluorescence intensity (a.u.)
ATAATGCATCATGCCAACATTCTCCTAATTTTTCCACGCACGGAGTCACCTAGTGCAG	8760 fluorescence intensity (a.u.)
TAGTACTTATCACTAGTGATCCCATCGGTTTATGCAGCATCGGAGTCACCTAGTGCAG	9010 fluorescence intensity (a.u.)
GGTTATTGTGCCAGTATCGTGCCTGGTGCAACGAGAGCTCCGGAGTCACCTAGTGCAG	10400 fluorescence intensity (a.u.)
AGGGTTTTCTTCTCTTCTCCCTTTCCTGTCGTCGCCGCCACGGAGTCACCTAGTGCAG	9750 fluorescence intensity (a.u.)
ACACTGTATATCCGATCGAACTATATATATATCTGACATACGGAGTCACCTAGTGCAG	10500 fluorescence intensity (a.u.)
TTTCCTTGTCGCAAACCGCGCTGGCCCCTCTGCAAACTCGCGGAGTCACCTAGTGCAG	9030 fluorescence intensity (a.u.)
ACCGGCTCCCGCTCGTCCTCCGCTTCAGCGTCATCTCCCGCGGAGTCACCTAGTGCAG	9150 fluorescence intensity (a.u.)
GGTTTTGGTTGACGTGGCGCCTACATGGCGGTTTTGACCGCGGAGTCACCTAGTGCAG	8940 fluorescence intensity (a.u.)
TGTTGTTGTTATCCCTGTCGCCGCCTGAACAATGGAGTAACGGAGTCACCTAGTGCAG	8080 fluorescence intensity (a.u.)

As entered above:
Entry of GGTTATTGTGCCAGTATCGTGCCTGGTGCAACGAGAGCTCCGGAGTCACCTAGTGCAG under binding signal: 10400 fluorescence intensity (a.u.)
Entry of TGTTGTTGTTATCCCTGTCGCCGCCTGAACAATGGAGTAACGGAGTCACCTAGTGCAG under binding signal: 8080 fluorescence intensity (a.u.)

(next part)

Sequence	binding signal
TCACTCACTCACTCATCACGCTTTCGATCATCCGCTTTTCCGGAGTCACCTAGTGCAG	11900 fluorescence intensity (a.u.)
CAATCGGAAGTTGCTGGTCCCAGTCTGTCTTGGTCTCTTTCGGAGTCACCTAGTGCAG	9660 fluorescence intensity (a.u.)
CCCACTCATCATCGTCTTTTTCACTAGCGAGCAACCCCACCGGAGTCACCTAGTGCAG	8290 fluorescence intensity (a.u.)
GAGAAGCCTCCATTGCCTCGTTTTTGTTTGATCTTCTCAACGGAGTCACCTAGTGCAG	10800 fluorescence intensity (a.u.)
TTGCCGACACACGAACTCCACCCCACGGCCCACGCTAGCCCGGAGTCACCTAGTGCAG	9340 fluorescence intensity (a.u.)
GTTCGTTCGCCCTGCTGCTTCTCCCGCCGCATCCATCCCGCGGAGTCACCTAGTGCAG	9640 fluorescence intensity (a.u.)
CCTCGGTGTTGGAGTTTGGTGTCTGGTGTGCCGCCCGCCGCGGAGTCACCTAGTGCAG	9840 fluorescence intensity (a.u.)
GCTTCGCCTGCCGCTCCGGCCCATCAAAGCTTTTCCATCCCGGAGTCACCTAGTGCAG	10900 fluorescence intensity (a.u.)
CCCATCACCATAACCCTCTCACATCCTTCATCATGCATTACGGAGTCACCTAGTGCAG	8880 fluorescence intensity (a.u.)
TTTTAATGTGTCGTTCTCCAATCCTGCAAAACGCGTTCACCGGAGTCACCTAGTGCAG	9130 fluorescence intensity (a.u.)
ACACACAAACTTCCAACTTTTCCATCACATCGTTCCAATTCGGAGTCACCTAGTGCAG	11500 fluorescence intensity (a.u.)
TCGCTCACCTCGCGGTGTGCCCCTCCGTCGCCAGCTTTCCCGGAGTCACCTAGTGCAG	9640 fluorescence intensity (a.u.)
GGTCGAGAAGGCTTGTTTTTCTATTCCTAGTTTCTATCACCGGAGTCACCTAGTGCAG	8160 fluorescence intensity (a.u.)
ATTGCAGTGATTAATTTTTGTCTCATTTACGCTTCATTCACGGAGTCACCTAGTGCAG	11100 fluorescence intensity (a.u.)
GTTTTTGCTTTTAAAGTTTGACCACTCGTCTTATTTAATTCGGAGTCACCTAGTGCAG	10900 fluorescence intensity (a.u.)
CACCCACCCACGCACGCACAAACAGACGCAGACAGACACACGGAGTCACCTAGTGCAG	8860 fluorescence intensity (a.u.)
AGGGAGAGTGTGGGTGCGTGGGGCATATGGTGGTGCGGTGCGGAGTCACCTAGTGCAG	9950 fluorescence intensity (a.u.)
CACTTCCTACTTTCATTTAGTGCTGACTTGTTGCAACTTTCGGAGTCACCTAGTGCAG	9320 fluorescence intensity (a.u.)
TGGTATAAAACGCCCGCCTAATCTCCTTCGCTCTCTTCTTCGGAGTCACCTAGTGCAG	9260 fluorescence intensity (a.u.)
TCCCATACCTTCCTGATATTCGCGTTTTTTTTATCAGTTTCGGAGTCACCTAGTGCAG	11900 fluorescence intensity (a.u.)
TATTCTTACTTTATTATTATTGTGGTTTTTCCTGTCTACGCGGAGTCACCTAGTGCAG	9820 fluorescence intensity (a.u.)
AACCAACCAACCACGTCGATCGCTCGCAGTCGCCGCCGCGCGGAGTCACCTAGTGCAG	8700 fluorescence intensity (a.u.)
AGCTCTAGTCAAACGTCATTTGGACTAGCTATGGTTCATTCGGAGTCACCTAGTGCAG	8140 fluorescence intensity (a.u.)
AACACATGTTTTAACCTATTTTTTATCATTATTTCCTATCCGGAGTCACCTAGTGCAG	8590 fluorescence intensity (a.u.)
ATAATCTCGAGCGATATCGTCTCACCGGCGTCAGCGTGCACGGAGTCACCTAGTGCAG	8830 fluorescence intensity (a.u.)
GCAAAATATCAGTTTTCTCCACACCCACAGTTCAGCTGCCCGGAGTCACCTAGTGCAG	9240 fluorescence intensity (a.u.)
TTCTCAATTCCAAACTTCAACTTTCCCGTTTACCGTTAGCCGGAGTCACCTAGTGCAG	10400 fluorescence intensity (a.u.)
